Values quoted from earlier work as cited in patent US10166212B2, “Oral use of zinc and copper gluconates in the treatment of digital dermatitis” (DANTRACE, priority 2015, dated 2019).
At least one structure is not confirmed: it was looked up by name or label, or the drawing left a doubt.

System: digital dermatitis lesions

CN(C)[C@@H]1C(O)=C(C(N)=O)C(=O)[C@@]2(O)C(O)=C3C(=O)c4c(O)ccc(Cl)c4[C@@](C)(O)[C@H]3C[C@@H]12 [chlortetracycline spray, chlortetracycline]
rate of improvement, controls vs. treatment group (by day 3, P=0.02, better for the controls): 2.5 fold | likelihood of pain score equal to 2, control vs. treatment lesions (by day 14, P=0.09): 2.2 times | healing rate (change to M0) (by day 34 post-treatment, 10 g salicylic acid powder in bandage vs chlortetracycline spray control): 3.1%
